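Human melanoma cell lines in 1,536-well plates were treated with a pair of drugs for 72 h, then fixed, stained and imaged. The read-out is the fraction of cleaved-PARP-positive nuclei, in % of that fraction in the DMSO control; 200 means twice the control level of this apoptosis marker. Every drug was used at one fixed concentration, the higher of two screened. These are primary screening values without error estimates. Basal and induced levels differ widely between cell lines.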 This is part of the screen, not chosen by result.

Compounds and concentrations:
tanespimycin, 0.01 µM: C=CCNC1=C2C[C@@H](C)C[C@H](OC)[C@H](O)[C@@H](C)/C=C(\C)[C@H](OC(N)=O)[C@@H](OC)/C=C\C=C(/C)C(=O)NC(=CC1=O)C2=O
PF-04217903, 5 µM: OCCn1cc(-c2cnc3nnn(Cc4ccc5ncccc5c4)c3n2)cn1
vatalanib, 10 µM: Clc1ccc(Nc2nnc(Cc3ccncc3)c3ccccc23)cc1
vismodegib, 5 µM: CS(=O)(=O)c1ccc(C(=O)Nc2ccc(Cl)c(-c3ccccn3)c2)c(Cl)c1
KU-0063794, 0.1 µM: COc1ccc(-c2ccc3c(N4CCOCC4)nc(N4C[C@@H](C)O[C@@H](C)C4)nc3n2)cc1CO
PLX4720, 0.4 µM: CCCS(=O)(=O)Nc1ccc(F)c(C(=O)c2c[nH]c3ncc(Cl)cc23)c1F
IMD-0354, 0.08 µM: O=C(Nc1cc(C(F)(F)F)cc(C(F)(F)F)c1)c1cc(Cl)ccc1O
SU6656, 2 µM: CN(C)S(=O)(=O)c1ccc2c(c1)/C(=C/c1cc3c([nH]1)CCCC3)C(=O)N2
sorafenib, 2 µM: CNC(=O)c1cc(Oc2ccc(NC(=O)Nc3ccc(Cl)c(C(F)(F)F)c3)cc2)ccn1
decitabine, 0.5 µM: Nc1ncn([C@H]2C[C@H](O)[C@@H](CO)O2)c(=O)n1
SNS-032, 0.05 µM: CC(C)(C)c1cnc(CSc2cnc(NC(=O)C3CCNCC3)s2)o1
lenalidomide, 5 µM: Nc1cccc2c1CN(C1CCC(=O)NC1=O)C2=O (centres undefined)
fingolimod, 10 µM: CCCCCCCCc1ccc(CCC(N)(CO)CO)cc1

| Drugs | WM1716 |
|---|---|
| tanespimycin + sorafenib | 18.9 |
| fingolimod + SNS-032 | 6880 |
| lenalidomide + SNS-032 | 79.9 |
| SU6656 + SNS-032 | 293 |
| IMD-0354 + PF-04217903 | 126 |
| vismodegib + lenalidomide | 84.7 |
| vismodegib + vatalanib | 55.9 |
| PLX4720 + SU6656 | 169 |
| SNS-032 + PF-04217903 | 208 |
| PLX4720 + sorafenib | 42.5 |
| IMD-0354 + fingolimod | 175 |
| tanespimycin + PLX4720 | 240 |
| SU6656 + vatalanib | 237 |
| lenalidomide + decitabine | 239 |
| vatalanib + lenalidomide | 63.8 |
| PLX4720 + fingolimod | 105 |
| decitabine + vismodegib | 224 |
| sorafenib + vismodegib | 30.4 |
| lenalidomide + PF-04217903 | 30.9 |
| SU6656 + fingolimod | 1380 |
| vismodegib + SU6656 | 11.6 |
| PLX4720 + PF-04217903 | 167 |
| sorafenib + PF-04217903 | 124 |
| IMD-0354 + KU-0063794 | 98.9 |
| decitabine + SNS-032 | 165 |
| KU-0063794 + PF-04217903 | 139 |
| vismodegib + tanespimycin | 73.4 |

From a melanoma drug combination screen (doi:10.1371/journal.pone.0140310); values rounded.